In patent publication US20130090305A1, “METHOD USING A DIETARY SUPPLEMENT FOR HEALING OR REGRESSING SYMPTOMS OF GASTROESOPHAGEAL REFLUX DISEASE, GASTRITIS AND ULCERS” (priority 2006, published 2013):
At least one structure is not confirmed: it was looked up by name or label, or the drawing left a doubt.

System: chronic GERD, ulcer of 6 cm in the esophagus
Assay: Case of a patient with chronic GERD and a 6 cm esophageal ulcer
Type: in vivo, human
Conditions: before the formulation; regurgitation and heartburn

COc1ccc2[nH]c([S+]([O-])Cc3ncc(C)c(OC)c3C)nc2c1 (stereo not shown) [omeprazole]
relief of symptoms with earlier treatments: Neither treatment produced even partial relief
